Laboratory results taken from the supplement of paper PMC4604168 (melanoma cell lines).
The list shows a part of the results. Single values are uncertain, as repeats are few or missing.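 The apoptosis fraction was the count of cleaved-PARP antibody-stained nuclei relative to all DNA-stained nuclei, imaged in 1,536-well plates. Screening doses were set so most cells survived, and baseline and induced cleaved-PARP levels vary greatly across cell lines.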

What follows are compounds tested on G361 (assay: cleaved PARP positive nuclei fraction relative to DMSO control; melanoma cells; higher = more apoptosis). Conditions: library dose: low library concentration; 72 h.

In order of falling “cleaved PARP positive nuclei fraction” value:
1. O=C(O)c1ccc(-c2c[nH]c3ncc(-c4ccccc4)cc23)cc1C1CCCC1 + Cn1cc(/C=C2\C(=O)Nc3cccnc32)c2ccccc21 [GW441756] (first compound 0.16 µM, partner dose 0.4 µM)  132%
2. COc1cc2c(Oc3ccc4[nH]c(C)cc4c3F)ncnc2cc1OCCCN1CCCC1 [cediranib] + CCN(CC)CCCCNc1ncc2cc(-c3cc(OC)cc(OC)c3)c(NC(=O)NC(C)(C)C)nc2n1 [PD173074] (first compound 0.4 µM, partner dose 0.1 µM)  112%
3. CCN(CC)CCCCNc1ncc2cc(-c3cc(OC)cc(OC)c3)c(NC(=O)NC(C)(C)C)nc2n1 + Cc1cc([N+](=O)[O-])ccc1NS(=O)(=O)c1cc(Cl)ccc1Cl [FH535] (first compound 0.1 µM, partner dose 1 µM)  99.9%
4. N#Cc1c(O)c2c(-c3ccc(-c4ccccc4O)cc3)csc2[nH]c1=O + COc1cc(N2CCC(N3CCN(C)CC3)CC2)ccc1Nc1ncc(Cl)c(Nc2ccccc2S(=O)(=O)C(C)C)n1 [NVP-TAE684] (first compound 2 µM, partner dose 0.08 µM)  67.1%
5. O=C(O)c1ccc(-c2c[nH]c3ncc(-c4ccccc4)cc23)cc1C1CCCC1 + Oc1nc(-c2ccc(C(F)(F)F)cc2)nc2c1CSCC2 [XAV939] (first compound 0.16 µM, partner dose 2 µM)  66.4%
6. Oc1cc(-c2nc(-c3ccccc3)[nH]c2-c2ccncc2)ccc1Cl + COc1cc(N2CCC(N3CCN(C)CC3)CC2)ccc1Nc1ncc(Cl)c(Nc2ccccc2S(=O)(=O)C(C)C)n1 [NVP-TAE684] (first compound 0.2 µM, partner dose 0.08 µM)  31%
